Experimental data as given in US20100113390A1, “OLIGOSACCHARIDES DERIVED FROM FUCOIDAN” (SUNTORY HOLDINGS LIMITED, priority 2007, published 2010).

Assay: Evaluation of quality of taste (sensory test by 4 panelists)
Conditions: 5% aqueous solution, ordinary temperature

CC1OC(O)C(OC2OC(C(=O)O)C(O)C(O)C2O)C(O)C1O [GF (I), α-D-GlcA-(1→2)-L-Fuc]
Quality of taste, summary of sensory test: colorless solution serving as a refreshing acidifier with a slight sweetness
Sensory test comment, panel A (panelist A, free comment): Refreshing
Sensory test comment, panel B (panelist B, free comment): Pleasant
Sensory test comment, panel C (panelist C, free comment): Sour
